The source of these data is article PMC7472415.

Amino acid sequences for entries named in this document (tags omitted). Residues count along the entry.
UniProt P52294, 66-538: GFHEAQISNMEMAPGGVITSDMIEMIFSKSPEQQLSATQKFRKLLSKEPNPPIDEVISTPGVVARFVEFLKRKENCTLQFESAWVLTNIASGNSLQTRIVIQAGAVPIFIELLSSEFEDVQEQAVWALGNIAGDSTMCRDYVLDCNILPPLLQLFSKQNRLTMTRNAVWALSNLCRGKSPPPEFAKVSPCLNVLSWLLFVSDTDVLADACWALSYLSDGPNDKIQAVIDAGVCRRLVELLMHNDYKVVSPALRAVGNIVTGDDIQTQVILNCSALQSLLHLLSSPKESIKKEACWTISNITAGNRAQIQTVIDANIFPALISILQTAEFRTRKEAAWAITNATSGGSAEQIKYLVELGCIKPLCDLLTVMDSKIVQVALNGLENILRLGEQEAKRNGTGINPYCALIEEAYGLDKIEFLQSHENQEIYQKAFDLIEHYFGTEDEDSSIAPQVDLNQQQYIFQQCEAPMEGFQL
UniProt P15682, 1-21: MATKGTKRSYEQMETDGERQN
UniProt O00629, 64-521: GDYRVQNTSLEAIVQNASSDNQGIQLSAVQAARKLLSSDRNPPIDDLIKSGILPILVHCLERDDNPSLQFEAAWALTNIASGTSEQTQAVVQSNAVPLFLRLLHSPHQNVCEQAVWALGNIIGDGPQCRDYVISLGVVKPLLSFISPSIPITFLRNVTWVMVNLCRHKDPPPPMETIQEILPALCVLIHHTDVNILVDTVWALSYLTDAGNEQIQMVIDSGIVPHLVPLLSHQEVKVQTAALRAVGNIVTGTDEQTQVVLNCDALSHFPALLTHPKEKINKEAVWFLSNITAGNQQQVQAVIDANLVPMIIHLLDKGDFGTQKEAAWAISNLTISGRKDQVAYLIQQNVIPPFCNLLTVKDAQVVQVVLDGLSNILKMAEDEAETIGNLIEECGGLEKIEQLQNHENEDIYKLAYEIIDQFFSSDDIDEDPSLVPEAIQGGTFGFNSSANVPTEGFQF
UniProt O60684, 58-536: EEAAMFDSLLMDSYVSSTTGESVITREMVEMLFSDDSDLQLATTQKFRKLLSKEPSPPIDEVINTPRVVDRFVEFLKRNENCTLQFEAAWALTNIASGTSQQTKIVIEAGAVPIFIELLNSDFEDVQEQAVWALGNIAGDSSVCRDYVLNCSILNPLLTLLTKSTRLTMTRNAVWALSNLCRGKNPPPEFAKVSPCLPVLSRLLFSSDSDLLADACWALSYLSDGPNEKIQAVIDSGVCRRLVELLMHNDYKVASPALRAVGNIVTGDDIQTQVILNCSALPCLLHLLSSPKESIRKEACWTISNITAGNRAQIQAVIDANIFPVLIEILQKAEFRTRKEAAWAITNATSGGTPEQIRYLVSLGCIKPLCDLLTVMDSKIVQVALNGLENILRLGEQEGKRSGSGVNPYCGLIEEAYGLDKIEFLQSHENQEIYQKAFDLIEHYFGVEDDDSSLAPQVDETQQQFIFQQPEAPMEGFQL

These are yes or no findings as the source states them, for the method shown. Some results given as binding are weak or reduced against the parent protein; the word gives no strength.

The target of experiment [1] is human importin-α5 without its importin-β binding (IBB) domain (residues 66 to 538) (human) (UniProt P52294).
Experiment [2] has as its target A/NP_TAIL-YFP, nucleoprotein tail of A/WSN/1933 (residues 1 to 21) fused to yellow fluorescent prote (influenza A virus A/WSN/1933) (UniProt P15682). The experiment in a line: SEC; both purified. In general terms: SEC sorts molecules by how far they enter the pores of the column.
Experiment [3] deals with human importin-α3 without its importin-β binding (IBB) domain (residues 64 to 521) (human) (UniProt O00629).

In the case of “human importin-α5 without its importin-β binding (IBB) domain (residues 66 to 538) (from UniProt P52294 66-538) (domain or fragment)”, the binding entry in experiment [1] is reported as “no binding”.

In the case of “human importin-α7 without its importin-β binding (IBB) domain (residues 58 to 536) (from UniProt O60684 58-536) (domain or fragment)”, the binding result in experiment [2] was “binds”.

On to “human importin-α3 without its importin-β binding (IBB) domain (residues 64 to 521) (from UniProt O00629 64-521) (domain or fragment)”, for which, in experiment [3], the binding result was “no binding”.
